Structures can show the parent of a compound that is named as a salt. The list shows a part of the results. Hit calls seldom repeat between salt and free forms of one compound.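 In K562 cells expressing nanoluciferase-fused kinases, luminescence was recorded at 4 h intervals between 2 and 18 h, normalized as percent of control with DMSO at 100% and a positive control at 0%. A significant (2 sigma) signal drop marks a time point as decreased. The authors' rule for a hit is not shown and takes in more than the number of time points.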
Experiments:
Conditions in all cases: K562; 2-18 h
[1] = molecular target: ROR2 (UniProt Q01974); experiment: number of time points (of 5) at which kinase-Nluc abundance scored as decreased, DMSO-normalised (count); higher = more persistent destabilization
[2] = molecular target: RPS6KA1 (UniProt Q15418); experiment: as above
[3] = molecular target: SPHK1 (UniProt Q9NYA1); experiment: as above
[4] = molecular target: SRC (UniProt P12931); experiment: as above
[5] = molecular target: STK24 (UniProt Q9Y6E0); experiment: as above
[6] = molecular target: STK38 (UniProt Q15208); experiment: as above
[7] = molecular target: SYK (UniProt P43405); experiment: as above
[8] = molecular target: TEC (UniProt P42680); experiment: as above
[9] = molecular target: TYK2 (UniProt P29597); experiment: as above
[10] = molecular target: ULK3 (UniProt Q6PHR2); experiment: as above
[11] = molecular target: YES1 (UniProt P07947); experiment: as above
[12] = molecular target: ZAK (UniProt Q9NYL2); experiment: as above
[13] = molecular target: ZAP70 (UniProt P43403); experiment: as above
[14] = molecular target: CDK4 (UniProt P11802); experiment: number of time points (of 4; 2 h point missing) at which kinase-Nluc abundance scored as decreased, DMSO-normalised (count); higher = more persistent destabilization
[15] = molecular target: CDK7 (UniProt P50613); experiment: as above
[16] = molecular target: CDK9 (UniProt P50750); experiment: as above

Chains of the proteins cited; added tags and fusions are not shown. Lines headed by an entry give the natural chain unless they say otherwise; changes in a name come on top.
UniProt Q01974, whole entry: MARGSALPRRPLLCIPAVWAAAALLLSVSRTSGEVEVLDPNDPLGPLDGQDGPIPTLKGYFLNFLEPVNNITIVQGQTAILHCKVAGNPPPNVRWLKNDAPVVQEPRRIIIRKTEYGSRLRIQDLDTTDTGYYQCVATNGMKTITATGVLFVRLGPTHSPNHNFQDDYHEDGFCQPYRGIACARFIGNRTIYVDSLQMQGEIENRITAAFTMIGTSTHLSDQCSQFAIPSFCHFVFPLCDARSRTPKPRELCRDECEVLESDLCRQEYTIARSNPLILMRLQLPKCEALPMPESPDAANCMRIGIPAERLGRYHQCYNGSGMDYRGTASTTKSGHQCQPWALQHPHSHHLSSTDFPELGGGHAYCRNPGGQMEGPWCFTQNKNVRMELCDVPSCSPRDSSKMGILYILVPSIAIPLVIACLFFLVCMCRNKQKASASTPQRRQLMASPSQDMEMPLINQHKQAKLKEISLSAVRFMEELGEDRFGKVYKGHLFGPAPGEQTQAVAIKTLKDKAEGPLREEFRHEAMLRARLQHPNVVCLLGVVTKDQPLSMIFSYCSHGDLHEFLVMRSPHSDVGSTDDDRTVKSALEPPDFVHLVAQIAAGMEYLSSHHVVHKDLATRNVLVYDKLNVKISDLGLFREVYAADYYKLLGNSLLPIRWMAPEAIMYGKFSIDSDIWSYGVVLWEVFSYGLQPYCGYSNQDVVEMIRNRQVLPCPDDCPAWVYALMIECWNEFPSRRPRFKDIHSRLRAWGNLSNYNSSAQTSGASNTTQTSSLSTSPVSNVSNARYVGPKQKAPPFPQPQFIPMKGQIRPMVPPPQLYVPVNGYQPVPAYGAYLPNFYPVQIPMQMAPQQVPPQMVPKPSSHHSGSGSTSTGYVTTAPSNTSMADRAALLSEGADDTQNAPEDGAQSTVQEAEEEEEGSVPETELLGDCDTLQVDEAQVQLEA
UniProt Q15418, whole entry: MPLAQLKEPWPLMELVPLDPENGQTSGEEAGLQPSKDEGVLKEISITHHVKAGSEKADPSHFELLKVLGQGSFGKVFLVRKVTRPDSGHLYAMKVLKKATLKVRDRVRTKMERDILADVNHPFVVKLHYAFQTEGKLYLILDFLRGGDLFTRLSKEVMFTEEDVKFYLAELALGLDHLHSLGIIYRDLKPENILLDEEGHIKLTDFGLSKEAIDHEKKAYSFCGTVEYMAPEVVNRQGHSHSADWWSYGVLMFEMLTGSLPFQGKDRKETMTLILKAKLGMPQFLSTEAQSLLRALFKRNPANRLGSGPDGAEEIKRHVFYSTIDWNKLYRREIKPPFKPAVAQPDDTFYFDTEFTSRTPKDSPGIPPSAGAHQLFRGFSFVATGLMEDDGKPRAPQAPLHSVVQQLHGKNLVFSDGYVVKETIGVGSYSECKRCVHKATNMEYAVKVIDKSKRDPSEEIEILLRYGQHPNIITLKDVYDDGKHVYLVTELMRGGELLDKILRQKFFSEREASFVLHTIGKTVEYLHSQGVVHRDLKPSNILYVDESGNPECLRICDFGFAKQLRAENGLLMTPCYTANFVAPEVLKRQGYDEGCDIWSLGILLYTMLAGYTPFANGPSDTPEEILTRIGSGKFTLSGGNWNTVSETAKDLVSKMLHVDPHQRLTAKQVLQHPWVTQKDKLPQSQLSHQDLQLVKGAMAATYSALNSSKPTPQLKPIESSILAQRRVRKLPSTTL
UniProt Q9NYA1, whole entry: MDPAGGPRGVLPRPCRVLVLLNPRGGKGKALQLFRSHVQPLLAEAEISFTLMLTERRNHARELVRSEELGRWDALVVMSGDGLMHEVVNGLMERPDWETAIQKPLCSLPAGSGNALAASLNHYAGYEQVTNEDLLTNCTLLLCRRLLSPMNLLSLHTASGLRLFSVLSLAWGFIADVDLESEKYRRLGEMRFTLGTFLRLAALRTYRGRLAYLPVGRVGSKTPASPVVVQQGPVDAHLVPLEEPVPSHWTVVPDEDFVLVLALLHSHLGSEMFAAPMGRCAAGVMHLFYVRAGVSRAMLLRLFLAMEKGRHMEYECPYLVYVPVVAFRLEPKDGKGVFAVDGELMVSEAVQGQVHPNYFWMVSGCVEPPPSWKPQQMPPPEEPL
UniProt Q9Y6E0: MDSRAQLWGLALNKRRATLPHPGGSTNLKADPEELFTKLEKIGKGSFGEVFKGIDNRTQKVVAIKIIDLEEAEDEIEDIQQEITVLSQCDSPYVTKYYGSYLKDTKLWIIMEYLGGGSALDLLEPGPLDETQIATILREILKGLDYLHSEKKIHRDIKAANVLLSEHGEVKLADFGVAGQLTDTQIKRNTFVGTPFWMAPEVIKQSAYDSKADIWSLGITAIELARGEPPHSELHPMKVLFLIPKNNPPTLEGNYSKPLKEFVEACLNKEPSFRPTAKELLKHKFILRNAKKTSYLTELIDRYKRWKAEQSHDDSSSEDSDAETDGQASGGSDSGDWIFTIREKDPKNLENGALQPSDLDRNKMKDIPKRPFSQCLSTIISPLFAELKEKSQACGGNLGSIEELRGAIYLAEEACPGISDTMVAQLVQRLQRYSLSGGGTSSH
UniProt Q15208: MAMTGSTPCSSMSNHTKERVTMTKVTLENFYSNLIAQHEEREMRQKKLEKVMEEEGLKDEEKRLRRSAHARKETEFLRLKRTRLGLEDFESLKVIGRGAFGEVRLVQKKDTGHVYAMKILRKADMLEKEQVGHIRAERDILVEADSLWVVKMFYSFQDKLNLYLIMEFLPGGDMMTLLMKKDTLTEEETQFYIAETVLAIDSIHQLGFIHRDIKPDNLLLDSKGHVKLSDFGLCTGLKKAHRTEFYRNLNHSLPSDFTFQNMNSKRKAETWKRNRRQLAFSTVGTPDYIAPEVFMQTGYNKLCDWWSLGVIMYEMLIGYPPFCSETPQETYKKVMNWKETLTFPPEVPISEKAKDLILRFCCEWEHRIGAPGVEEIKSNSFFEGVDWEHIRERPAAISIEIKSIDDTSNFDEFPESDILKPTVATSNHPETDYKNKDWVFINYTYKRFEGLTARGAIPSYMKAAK
UniProt P42680: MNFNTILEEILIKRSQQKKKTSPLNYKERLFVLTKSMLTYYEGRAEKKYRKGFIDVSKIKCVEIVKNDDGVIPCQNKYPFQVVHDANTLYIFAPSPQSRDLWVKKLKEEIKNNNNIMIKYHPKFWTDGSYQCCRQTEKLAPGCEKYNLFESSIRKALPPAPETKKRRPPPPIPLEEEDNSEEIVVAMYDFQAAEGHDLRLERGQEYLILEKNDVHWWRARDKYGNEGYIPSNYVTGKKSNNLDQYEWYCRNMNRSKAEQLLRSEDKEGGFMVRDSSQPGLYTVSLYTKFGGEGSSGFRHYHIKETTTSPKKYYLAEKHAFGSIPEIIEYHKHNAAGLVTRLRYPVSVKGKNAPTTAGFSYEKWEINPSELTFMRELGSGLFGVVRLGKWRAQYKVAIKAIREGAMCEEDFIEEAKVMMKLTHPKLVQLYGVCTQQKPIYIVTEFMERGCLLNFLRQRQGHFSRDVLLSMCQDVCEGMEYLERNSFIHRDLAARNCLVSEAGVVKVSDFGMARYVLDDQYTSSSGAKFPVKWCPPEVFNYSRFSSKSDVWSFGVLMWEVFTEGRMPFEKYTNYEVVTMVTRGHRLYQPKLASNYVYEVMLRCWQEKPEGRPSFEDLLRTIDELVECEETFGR
UniProt P29597: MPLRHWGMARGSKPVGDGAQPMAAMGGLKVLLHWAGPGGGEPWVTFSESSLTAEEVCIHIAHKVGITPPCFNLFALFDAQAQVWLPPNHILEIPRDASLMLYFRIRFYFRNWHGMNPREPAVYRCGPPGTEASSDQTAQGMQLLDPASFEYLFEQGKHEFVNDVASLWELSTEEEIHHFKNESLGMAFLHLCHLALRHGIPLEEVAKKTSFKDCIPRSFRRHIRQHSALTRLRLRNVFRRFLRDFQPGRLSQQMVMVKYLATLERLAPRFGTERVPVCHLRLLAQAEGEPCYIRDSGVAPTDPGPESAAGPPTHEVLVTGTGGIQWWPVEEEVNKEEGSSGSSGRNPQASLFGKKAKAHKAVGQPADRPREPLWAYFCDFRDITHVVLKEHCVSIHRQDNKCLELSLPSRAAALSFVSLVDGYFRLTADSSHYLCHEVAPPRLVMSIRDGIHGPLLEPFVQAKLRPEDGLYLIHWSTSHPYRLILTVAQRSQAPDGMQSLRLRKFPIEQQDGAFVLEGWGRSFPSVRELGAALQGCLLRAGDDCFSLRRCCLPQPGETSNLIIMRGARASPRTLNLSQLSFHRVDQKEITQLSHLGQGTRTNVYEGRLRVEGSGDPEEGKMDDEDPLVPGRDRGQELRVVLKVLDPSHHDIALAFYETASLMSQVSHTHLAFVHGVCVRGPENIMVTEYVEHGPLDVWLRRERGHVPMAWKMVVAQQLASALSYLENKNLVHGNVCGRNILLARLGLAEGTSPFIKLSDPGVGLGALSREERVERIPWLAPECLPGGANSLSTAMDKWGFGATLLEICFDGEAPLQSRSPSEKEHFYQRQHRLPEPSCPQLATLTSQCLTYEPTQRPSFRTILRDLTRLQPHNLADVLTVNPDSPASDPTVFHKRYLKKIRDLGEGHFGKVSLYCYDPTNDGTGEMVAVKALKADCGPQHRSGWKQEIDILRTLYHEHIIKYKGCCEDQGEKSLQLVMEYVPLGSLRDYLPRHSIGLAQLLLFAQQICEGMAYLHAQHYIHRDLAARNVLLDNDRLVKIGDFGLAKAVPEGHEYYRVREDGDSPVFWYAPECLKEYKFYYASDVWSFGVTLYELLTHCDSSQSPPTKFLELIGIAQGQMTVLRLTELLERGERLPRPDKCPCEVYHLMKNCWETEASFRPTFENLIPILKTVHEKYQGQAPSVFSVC
UniProt P07947, whole entry, looked up: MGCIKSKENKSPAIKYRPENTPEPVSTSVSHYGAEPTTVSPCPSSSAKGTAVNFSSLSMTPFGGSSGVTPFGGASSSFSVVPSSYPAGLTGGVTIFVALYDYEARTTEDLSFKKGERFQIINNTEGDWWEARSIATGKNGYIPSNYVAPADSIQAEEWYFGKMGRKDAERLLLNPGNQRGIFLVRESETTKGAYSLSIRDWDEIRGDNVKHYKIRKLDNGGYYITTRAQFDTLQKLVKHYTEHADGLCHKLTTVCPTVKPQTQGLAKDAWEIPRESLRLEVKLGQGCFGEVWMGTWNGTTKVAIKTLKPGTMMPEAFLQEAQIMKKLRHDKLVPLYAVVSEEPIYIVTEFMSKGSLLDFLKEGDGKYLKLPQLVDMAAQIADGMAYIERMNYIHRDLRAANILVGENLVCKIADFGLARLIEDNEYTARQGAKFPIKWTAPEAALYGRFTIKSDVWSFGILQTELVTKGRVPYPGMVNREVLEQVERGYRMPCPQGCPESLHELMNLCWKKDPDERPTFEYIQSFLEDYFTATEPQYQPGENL
UniProt P43403: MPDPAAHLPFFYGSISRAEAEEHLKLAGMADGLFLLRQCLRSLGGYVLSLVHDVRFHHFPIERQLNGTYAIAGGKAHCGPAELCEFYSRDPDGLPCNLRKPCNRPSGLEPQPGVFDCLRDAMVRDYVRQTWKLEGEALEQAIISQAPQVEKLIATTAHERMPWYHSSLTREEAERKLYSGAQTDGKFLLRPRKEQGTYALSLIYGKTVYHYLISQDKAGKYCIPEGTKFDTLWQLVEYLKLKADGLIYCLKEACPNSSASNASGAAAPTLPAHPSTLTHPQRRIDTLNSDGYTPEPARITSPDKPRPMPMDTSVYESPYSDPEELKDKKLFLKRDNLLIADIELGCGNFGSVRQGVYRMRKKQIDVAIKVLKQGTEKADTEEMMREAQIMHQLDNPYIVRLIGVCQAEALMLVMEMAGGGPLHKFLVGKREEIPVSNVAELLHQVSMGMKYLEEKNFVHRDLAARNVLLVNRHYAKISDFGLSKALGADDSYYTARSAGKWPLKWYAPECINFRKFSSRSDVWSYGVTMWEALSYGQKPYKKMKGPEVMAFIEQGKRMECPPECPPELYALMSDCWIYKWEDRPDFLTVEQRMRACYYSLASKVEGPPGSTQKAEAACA
UniProt P11802: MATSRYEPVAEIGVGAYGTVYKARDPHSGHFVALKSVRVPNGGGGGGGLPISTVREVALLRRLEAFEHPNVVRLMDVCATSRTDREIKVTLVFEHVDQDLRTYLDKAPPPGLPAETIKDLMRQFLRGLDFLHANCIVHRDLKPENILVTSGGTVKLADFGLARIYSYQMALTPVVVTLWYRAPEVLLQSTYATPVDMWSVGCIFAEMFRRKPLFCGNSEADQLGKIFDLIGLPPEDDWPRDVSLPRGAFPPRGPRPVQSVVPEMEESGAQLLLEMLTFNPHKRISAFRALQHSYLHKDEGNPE
UniProt P50613: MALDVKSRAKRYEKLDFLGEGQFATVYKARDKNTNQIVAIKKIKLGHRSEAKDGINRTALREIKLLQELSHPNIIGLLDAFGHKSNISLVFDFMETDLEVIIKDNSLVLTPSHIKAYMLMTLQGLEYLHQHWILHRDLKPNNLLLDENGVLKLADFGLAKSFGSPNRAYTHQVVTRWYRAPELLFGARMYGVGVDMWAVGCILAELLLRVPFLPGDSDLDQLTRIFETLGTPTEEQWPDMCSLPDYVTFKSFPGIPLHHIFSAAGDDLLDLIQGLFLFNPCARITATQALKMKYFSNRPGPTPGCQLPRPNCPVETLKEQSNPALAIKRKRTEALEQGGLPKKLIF

Structure (SMILES)	number of time points [1]	number of time points [2]	number of time points [3]	number of time points [4]	number of time points [5]	number of time points [6]	number of time points [7]	number of time points [8]	number of time points [9]	number of time points [10]	number of time points [11]	number of time points [12]	number of time points [13]	number of time points [14]	number of time points [15]	number of time points [16]
Cc1cc(=O)oc2c(C=O)c(O)ccc12 (10 µM)	0	0	0	0	0	0	0	0	0	0	0	0	0	0	0	0
CC[C@@H](Oc1nc(Oc2cc(C)cc(-c3cccc(CN)c3)c2)c(F)cc1F)C(=O)O (10 µM)	0	0	0	0	0	0	0	0	0	0	0	0	0	0	0	0
Cn1cnc(Cn2ccc3ccc(CNCc4[nH]c5ccccc5c4[C@H]4NC(=O)c5ccc(O)cc54)cc32)c1 (10 µM)	0	0	0	0	0	0	0	0	0	0	0	0	0	0	0	0
COc1ccc(-c2ccc3c(N4CCOCC4)nc(N4C[C@@H](C)O[C@@H](C)C4)nc3n2)cc1CO (2.5 µM)	0	0	0	0	0	0	0	0	0	0	0	0	0	0	0	0
O=c1cc(CN2CCOCC2)occ1OCCCCCSc1ccnc2cc(C(F)(F)F)ccc12 (10 µM)	0	0	0	0	0	0	0	0	0	0	0	0	0	0	0	0
NCCNS(=O)(=O)c1cccc2c(Cl)cccc12 [A-3 (hydrochloride)] (10 µM)	0	0	0	0	0	0	0	0	0	0	0	0	0	0	0	0
Cc1cc(CN2CCN(c3c(Br)cnc4nc(-c5ccc(N6CCN(C)CC6)cc5)[nH]c34)CC2)no1 (2.5 µM)	0	0	0	0	0	0	0	0	0	0	0	0	0	0	0	0
Cn1cnc2c(F)c(Nc3ccc(Br)cc3Cl)c(C(=O)NOCCO)cc21 [Selumetinib] (10 µM)	0	0	0	0	0	0	0	0	0	0	0	0	0	0	0	0
CCN1CCN(Cc2ccc(-c3cc4c(N[C@H](C)c5ccccc5)ncnc4[nH]3)cc2)CC1 (2.5 µM)	0	0	0	0	0	0	0	2	2	3	3	0	0	0	3	1
Cc1nc2sccn2c(=O)c1CCN1CCC(=C(c2ccccc2)c2ccc(F)cc2)CC1 (10 µM)	0	0	0	0	0	0	0	0	0	0	0	0	0	0	0	0
Nc1nc(F)nc2c1ncn2[C@@H]1O[C@H](CO)[C@@H](O)[C@@H]1O [Fludarabine] (10 µM)	0	0	0	0	0	0	0	0	0	0	0	0	0	0	0	0
Nc1ccc(-c2cnc(N)c(-c3ccc(Cl)cc3)c2)cn1 (10 µM)	0	0	0	0	0	0	0	0	0	0	0	0	0	0	0	0
CNc1nc(Nc2ccc(C(=O)N3CCOCC3)cc2OC)nc2[nH]cc(Cl)c12 (2.5 µM)	0	0	0	0	0	0	0	0	0	0	0	0	0	0	0	0
O=C1Nc2ccc(C(=O)c3ccco3)cc2C1=Cc1cc(Cl)c(O)c(Cl)c1 (2.5 µM)	0	0	0	0	0	0	0	0	0	0	0	0	0	0	0	0
COc1cc2ncnc(Nc3ccc(Cl)cc3F)c2cc1OC (10 µM)	0	0	0	0	0	0	0	0	0	0	0	0	0	0	0	0
C=C1C(=O)O[C@H]2C[C@H](C)C(/C=C/C(C)=O)=CC[C@H]12 [Xanthatin] (2.5 µM)	0	0	0	0	0	0	0	0	0	0	0	0	0	0	0	0
COc1ccc2c(OCc3nnc4ccc(-c5ccccc5)nn34)ccnc2c1 (2 µM)	0	0	0	0	0	0	0	0	0	0	0	0	0	0	0	0
Cn1ncc(Cl)c1-c1cc(C(=O)N[C@H](CN)Cc2ccc(F)c(F)c2)oc1Cl [Uprosertib] (10 µM)	0	0	0	0	0	0	0	0	0	0	0	0	0	0	0	0
Cc1ccc(C(=O)Nc2ccc(Oc3cc4cnn(C)c4cc3-c3cn[nH]c3)c(F)c2)c(=O)n1-c1ccc(F)cc1 [Merestinib dihydrochloride] (2.5 µM)	0	0	0	0	0	0	0	0	0	0	0	0	0	0	0	0
c1ccc(-c2[nH]ncc2-c2ccnc3ccccc23)nc1 (10 µM)	0	0	0	0	0	0	0	0	0	0	0	0	0	0	0	0
COc1cc2c(N3CCN(C(=O)Nc4ccc(OC(C)C)cc4)CC3)ncnc2cc1OCCCN1CCCCC1 [Tandutinib] (10 µM)	0	0	0	0	0	0	0	0	0	0	0	0	0	0	0	0
O=C(Nc1ccc(CN2CCOCC2)cc1)c1ccc(-c2cccc(Cl)c2)o1 (10 µM)	0	0	0	0	0	0	0	0	0	0	0	0	0	0	0	0
CCCCCCCCCCCCC/C=C/[C@@H](O)[C@@H](N)CO [D-erythro-Sphingosine] (2.5 µM)	0	0	0	0	0	0	0	0	0	0	0	0	0	0	0	0
COc1ccccc1-c1cc(Nc2cccc(CS(N)(=O)=O)c2)ncn1 (10 µM)	0	0	0	0	0	0	0	0	0	0	3	0	0	0	3	2
Cc1ccc(C(=O)Nc2ccc(Oc3cc4cnn(C)c4cc3-c3cn[nH]c3)c(F)c2)c(=O)n1-c1ccc(F)cc1 [Merestinib] (2.5 µM)	0	0	0	0	0	0	0	0	0	0	0	0	0	0	0	1
CN(C)CCSSCCNC(=O)C1CCN(C(=O)CSc2ccc(Cl)cc2)CC1 (10 µM)	0	0	0	0	0	0	0	0	0	0	0	0	0	0	0	0

Copied from the entries so far for reference:
Structure (SMILES)	number of time points [1]	number of time points [2]	number of time points [3]	number of time points [4]	number of time points [5]	number of time points [6]	number of time points [7]	number of time points [8]	number of time points [9]	number of time points [10]	number of time points [11]	number of time points [12]	number of time points [13]	number of time points [14]	number of time points [15]	number of time points [16]
Cc1cc(=O)oc2c(C=O)c(O)ccc12 (10 µM)	0	0	0	0	0	0	0	0	0	0	0	0	0	0	0	0
CC[C@@H](Oc1nc(Oc2cc(C)cc(-c3cccc(CN)c3)c2)c(F)cc1F)C(=O)O (10 µM)	0	0	0	0	0	0	0	0	0	0	0	0	0	0	0	0
Cn1cnc(Cn2ccc3ccc(CNCc4[nH]c5ccccc5c4[C@H]4NC(=O)c5ccc(O)cc54)cc32)c1 (10 µM)	0	0	0	0	0	0	0	0	0	0	0	0	0	0	0	0
COc1ccc(-c2ccc3c(N4CCOCC4)nc(N4C[C@@H](C)O[C@@H](C)C4)nc3n2)cc1CO (2.5 µM)	0	0	0	0	0	0	0	0	0	0	0	0	0	0	0	0
O=c1cc(CN2CCOCC2)occ1OCCCCCSc1ccnc2cc(C(F)(F)F)ccc12 (10 µM)	0	0	0	0	0	0	0	0	0	0	0	0	0	0	0	0
NCCNS(=O)(=O)c1cccc2c(Cl)cccc12 [A-3 (hydrochloride)] (10 µM)	0	0	0	0	0	0	0	0	0	0	0	0	0	0	0	0
Cc1cc(CN2CCN(c3c(Br)cnc4nc(-c5ccc(N6CCN(C)CC6)cc5)[nH]c34)CC2)no1 (2.5 µM)	0	0	0	0	0	0	0	0	0	0	0	0	0	0	0	0

Reference: the supplement of paper PMC12823440, “Inhibitors supercharge kinase turnover through native proteolytic circuits” (Nature, 2025)
